Experimental data from patent US20150284436A1.
Results are given in words; binding and its absence hold for the method and conditions named. Binding seen in cells or lysates may run through a third protein. Some results given as binding are weak or reduced against the parent protein; the word gives no strength. Where a sequence is shown, tags or fusion partners need not be part of it.

Experiments:
[1] = molecular target: T1, HA-tagged TXNIP (human) (UniProt Q9H3M7); assay: co-immunoprecipitation from 293T lysates, Western blot
T1 sequence: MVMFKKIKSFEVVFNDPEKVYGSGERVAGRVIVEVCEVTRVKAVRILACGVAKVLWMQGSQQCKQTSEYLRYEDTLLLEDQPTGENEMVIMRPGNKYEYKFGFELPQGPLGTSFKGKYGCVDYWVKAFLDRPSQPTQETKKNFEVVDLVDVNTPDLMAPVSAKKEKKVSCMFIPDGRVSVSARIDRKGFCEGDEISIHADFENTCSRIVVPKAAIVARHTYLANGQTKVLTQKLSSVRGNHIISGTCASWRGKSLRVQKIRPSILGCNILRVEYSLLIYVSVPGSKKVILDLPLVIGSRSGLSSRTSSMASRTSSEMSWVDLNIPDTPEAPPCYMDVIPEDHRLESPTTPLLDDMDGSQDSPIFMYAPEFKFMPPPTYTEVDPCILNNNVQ

[2] = molecular target: T2, FLAG-tagged TXNIP (human) (UniProt Q9H3M7); assay: GST pull-down / co-IP from 293T lysates, Western blot
T2 sequence: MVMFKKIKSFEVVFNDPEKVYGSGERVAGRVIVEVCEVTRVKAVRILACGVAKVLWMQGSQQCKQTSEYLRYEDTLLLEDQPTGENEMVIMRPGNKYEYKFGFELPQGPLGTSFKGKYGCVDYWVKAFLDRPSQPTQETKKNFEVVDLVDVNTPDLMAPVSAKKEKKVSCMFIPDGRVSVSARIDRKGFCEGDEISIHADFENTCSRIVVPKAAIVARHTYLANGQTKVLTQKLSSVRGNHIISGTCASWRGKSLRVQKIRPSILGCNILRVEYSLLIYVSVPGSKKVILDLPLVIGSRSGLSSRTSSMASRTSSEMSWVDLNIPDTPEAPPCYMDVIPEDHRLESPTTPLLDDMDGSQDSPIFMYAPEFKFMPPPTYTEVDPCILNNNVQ

[3] = molecular target: GST-fused TXNIP (human) (UniProt Q9H3M7); assay: glutathione bead pull-down of GST-fused TXNIP from HEK 293T lysates, SDS-PAGE and Western blot
[4] = molecular target: T3, human TRX (thioredoxin), wild-type, tag-free (human) (UniProt P10599); assay: GST pull-down from transfected HEK 293T lysates, immunoblot
T3 sequence: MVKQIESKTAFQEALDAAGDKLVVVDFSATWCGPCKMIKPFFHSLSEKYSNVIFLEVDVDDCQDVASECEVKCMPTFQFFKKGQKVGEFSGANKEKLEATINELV

[5] = molecular target: T4, TRX(C35A), tag-free (human) (UniProt P10599); assay: co-expression in E. coli and Ni-NTA co-purification, SDS-PAGE
T4 sequence: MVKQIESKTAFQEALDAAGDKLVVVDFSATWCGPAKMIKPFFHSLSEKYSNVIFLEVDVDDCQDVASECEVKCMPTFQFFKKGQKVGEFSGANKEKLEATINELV

[6] = molecular target: T3, human TRX (thioredoxin), wild-type, tag-free (human); assay: as above
[7] = molecular target: T3, human TRX (thioredoxin), wild-type, tag-free (human); assay: GST pull-down from transfected HEK 293T lysates (FIG. 6B)

B1: FLAG-tagged TXNIP (protein)
chain: MVMFKKIKSFEVVFNDPEKVYGSGERVAGRVIVEVCEVTRVKAVRILACGVAKVLWMQGSQQCKQTSEYLRYEDTLLLEDQPTGENEMVIMRPGNKYEYKFGFELPQGPLGTSFKGKYGCVDYWVKAFLDRPSQPTQETKKNFEVVDLVDVNTPDLMAPVSAKKEKKVSCMFIPDGRVSVSARIDRKGFCEGDEISIHADFENTCSRIVVPKAAIVARHTYLANGQTKVLTQKLSSVRGNHIISGTCASWRGKSLRVQKIRPSILGCNILRVEYSLLIYVSVPGSKKVILDLPLVIGSRSGLSSRTSSMASRTSSEMSWVDLNIPDTPEAPPCYMDVIPEDHRLESPTTPLLDDMDGSQDSPIFMYAPEFKFMPPPTYTEVDPCILNNNVQ
In the case of B1, the binding [1] is reported as “binds”.

B2: GST-fused TXNIP (protein)
chain: MVMFKKIKSFEVVFNDPEKVYGSGERVAGRVIVEVCEVTRVKAVRILACGVAKVLWMQGSQQCKQTSEYLRYEDTLLLEDQPTGENEMVIMRPGNKYEYKFGFELPQGPLGTSFKGKYGCVDYWVKAFLDRPSQPTQETKKNFEVVDLVDVNTPDLMAPVSAKKEKKVSCMFIPDGRVSVSARIDRKGFCEGDEISIHADFENTCSRIVVPKAAIVARHTYLANGQTKVLTQKLSSVRGNHIISGTCASWRGKSLRVQKIRPSILGCNILRVEYSLLIYVSVPGSKKVILDLPLVIGSRSGLSSRTSSMASRTSSEMSWVDLNIPDTPEAPPCYMDVIPEDHRLESPTTPLLDDMDGSQDSPIFMYAPEFKFMPPPTYTEVDPCILNNNVQ
For B2, the binding [2] was “binds” and the binding [3] was “binds”.

B3: T-TXNIP(C170S/C205S/C267S) (protein)
chain: MFKKIKSFEVVFNDPEKVYGSGERVAGRVIVEVCEVTRVKAVRILACGVAKVLWMQGSQQCKQTSEYLRYEDTLLLEDQPTGENEMVIMRPGNKYEYKFGFELPQGPLGTSFKGKYGCVDYWVKAFLDRPSQPTQETKKNFEVVDLVDVNTPDLMAPVSAKKEKKVSSMFIPDGRVSVSARIDRKGFCEGDEISIHADFENTSSRIVVPKAAIVARHTYLANGQTKVLTQKLSSVRGNHIISGTCASWRGKSLRVQKIRPSILGSNILRVEYSLLIYVSVPGSKKVILDLPLVIGSRSGLSSRTSSMASRTSSEM
For B3, the binding [4] was “binds”.

B4: GST-fused TXNIP with Cys247 substituted with serine (protein)
chain: MVMFKKIKSFEVVFNDPEKVYGSGERVAGRVIVEVCEVTRVKAVRILACGVAKVLWMQGSQQCKQTSEYLRYEDTLLLEDQPTGENEMVIMRPGNKYEYKFGFELPQGPLGTSFKGKYGCVDYWVKAFLDRPSQPTQETKKNFEVVDLVDVNTPDLMAPVSAKKEKKVSCMFIPDGRVSVSARIDRKGFCEGDEISIHADFENTCSRIVVPKAAIVARHTYLANGQTKVLTQKLSSVRGNHIISGTSASWRGKSLRVQKIRPSILGCNILRVEYSLLIYVSVPGSKKVILDLPLVIGSRSGLSSRTSSMASRTSSEMSWVDLNIPDTPEAPPCYMDVIPEDHRLESPTTPLLDDMDGSQDSPIFMYAPEFKFMPPPTYTEVDPCILNNNVQ
With B4 the binding [2] was “binds”.

B5: GST-fused TXNIP with Cys63 substituted with serine (protein)
chain: MVMFKKIKSFEVVFNDPEKVYGSGERVAGRVIVEVCEVTRVKAVRILACGVAKVLWMQGSQQSKQTSEYLRYEDTLLLEDQPTGENEMVIMRPGNKYEYKFGFELPQGPLGTSFKGKYGCVDYWVKAFLDRPSQPTQETKKNFEVVDLVDVNTPDLMAPVSAKKEKKVSCMFIPDGRVSVSARIDRKGFCEGDEISIHADFENTCSRIVVPKAAIVARHTYLANGQTKVLTQKLSSVRGNHIISGTCASWRGKSLRVQKIRPSILGCNILRVEYSLLIYVSVPGSKKVILDLPLVIGSRSGLSSRTSSMASRTSSEMSWVDLNIPDTPEAPPCYMDVIPEDHRLESPTTPLLDDMDGSQDSPIFMYAPEFKFMPPPTYTEVDPCILNNNVQ
For B5, the binding [2] was “binds”.

B6: N-TXNIP (N-terminal domain of TXNIP, residues 3-156) (protein)
chain: MFKKIKSFEVVFNDPEKVYGSGERVAGRVIVEVCEVTRVKAVRILACGVAKVLWMQGSQQCKQTSEYLRYEDTLLLEDQPTGENEMVIMRPGNKYEYKFGFELPQGPLGTSFKGKYGCVDYWVKAFLDRPSQPTQETKKNFEVVDLVDVNTPDL
With B6 the binding [5] was “binds” and the binding [6] was “binds”.

B7: full-length TXNIP (thioredoxin-interacting protein) (protein)
chain: MVMFKKIKSFEVVFNDPEKVYGSGERVAGRVIVEVCEVTRVKAVRILACGVAKVLWMQGSQQCKQTSEYLRYEDTLLLEDQPTGENEMVIMRPGNKYEYKFGFELPQGPLGTSFKGKYGCVDYWVKAFLDRPSQPTQETKKNFEVVDLVDVNTPDLMAPVSAKKEKKVSCMFIPDGRVSVSARIDRKGFCEGDEISIHADFENTCSRIVVPKAAIVARHTYLANGQTKVLTQKLSSVRGNHIISGTCASWRGKSLRVQKIRPSILGCNILRVEYSLLIYVSVPGSKKVILDLPLVIGSRSGLSSRTSSMASRTSSEMSWVDLNIPDTPEAPPCYMDVIPEDHRLESPTTPLLDDMDGSQDSPIFMYAPEFKFMPPPTYTEVDPCILNNNVQ
For B7, the binding [4] was “binds” and the binding [7] was “binds”.
